No constants are given. Whether binding was seen depends on the method and setting. Some entries that bind do so weakly or less than the wild type.

By UniProt entry, the sequences of proteins in these tests, tags left out. Where a name states a change or a piece, a line headed by the entry shows the natural chain unless it says otherwise.
UniProt Q9Z138: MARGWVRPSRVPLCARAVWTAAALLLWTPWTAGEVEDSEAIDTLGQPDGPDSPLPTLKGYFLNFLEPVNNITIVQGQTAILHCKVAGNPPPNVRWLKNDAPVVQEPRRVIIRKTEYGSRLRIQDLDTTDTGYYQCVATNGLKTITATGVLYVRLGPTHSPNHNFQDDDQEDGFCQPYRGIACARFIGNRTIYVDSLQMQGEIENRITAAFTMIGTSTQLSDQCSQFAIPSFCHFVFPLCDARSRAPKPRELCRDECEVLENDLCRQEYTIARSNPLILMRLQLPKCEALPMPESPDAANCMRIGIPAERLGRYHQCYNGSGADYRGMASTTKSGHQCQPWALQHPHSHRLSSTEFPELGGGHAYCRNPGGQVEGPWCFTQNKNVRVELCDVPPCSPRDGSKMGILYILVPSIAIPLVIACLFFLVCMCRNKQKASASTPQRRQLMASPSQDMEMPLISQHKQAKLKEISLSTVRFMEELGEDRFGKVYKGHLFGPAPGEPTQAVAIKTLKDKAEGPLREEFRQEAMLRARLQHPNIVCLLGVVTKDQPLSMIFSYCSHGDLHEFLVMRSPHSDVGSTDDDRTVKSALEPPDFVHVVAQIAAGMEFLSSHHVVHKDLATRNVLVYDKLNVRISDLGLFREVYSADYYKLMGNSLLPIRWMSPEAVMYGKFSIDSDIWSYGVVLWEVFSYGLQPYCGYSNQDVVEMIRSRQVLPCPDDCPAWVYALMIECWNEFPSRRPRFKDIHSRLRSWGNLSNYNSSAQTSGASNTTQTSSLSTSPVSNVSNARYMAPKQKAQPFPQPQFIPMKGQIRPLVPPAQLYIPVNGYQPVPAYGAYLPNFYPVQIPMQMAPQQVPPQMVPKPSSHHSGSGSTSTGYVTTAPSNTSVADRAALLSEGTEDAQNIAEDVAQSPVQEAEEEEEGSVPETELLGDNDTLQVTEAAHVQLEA
UniProt Q01974: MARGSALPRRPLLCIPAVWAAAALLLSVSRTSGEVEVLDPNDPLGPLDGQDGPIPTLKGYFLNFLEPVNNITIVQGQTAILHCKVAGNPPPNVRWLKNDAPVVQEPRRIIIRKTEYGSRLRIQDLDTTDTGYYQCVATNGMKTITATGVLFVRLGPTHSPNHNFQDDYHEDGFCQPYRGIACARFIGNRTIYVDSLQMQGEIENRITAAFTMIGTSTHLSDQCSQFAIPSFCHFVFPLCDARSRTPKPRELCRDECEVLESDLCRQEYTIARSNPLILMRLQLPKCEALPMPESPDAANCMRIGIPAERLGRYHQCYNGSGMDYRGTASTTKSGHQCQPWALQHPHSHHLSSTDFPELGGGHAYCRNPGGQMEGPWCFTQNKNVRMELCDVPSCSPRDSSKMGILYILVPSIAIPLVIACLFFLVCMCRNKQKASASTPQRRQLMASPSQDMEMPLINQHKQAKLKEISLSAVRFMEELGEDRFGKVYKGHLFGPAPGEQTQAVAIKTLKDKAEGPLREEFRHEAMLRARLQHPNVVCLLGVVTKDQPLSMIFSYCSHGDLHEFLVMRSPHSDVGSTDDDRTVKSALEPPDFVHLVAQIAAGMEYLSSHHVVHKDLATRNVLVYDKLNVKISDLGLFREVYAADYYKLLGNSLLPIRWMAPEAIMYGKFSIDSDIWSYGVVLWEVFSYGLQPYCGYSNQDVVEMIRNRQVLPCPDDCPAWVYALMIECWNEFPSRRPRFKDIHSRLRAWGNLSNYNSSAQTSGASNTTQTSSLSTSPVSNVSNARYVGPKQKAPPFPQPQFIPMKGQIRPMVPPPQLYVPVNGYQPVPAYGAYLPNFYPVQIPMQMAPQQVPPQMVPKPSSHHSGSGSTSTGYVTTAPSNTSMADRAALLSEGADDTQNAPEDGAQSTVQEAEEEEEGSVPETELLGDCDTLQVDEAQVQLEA

The source of these data is US20190031754A1.

Experiment [1] addresses recombinant murine twin strep-tagged ROR2 extracellular domain (mouse) (UniProt Q9Z138). Kind of experiment: ELISA on coated twin-strep mouse ROR2 ECD (FIG. 14).
For experiment [2] the target is unchanged. Kind of experiment: ELISA, coated twin-strep ROR2 ECD 2 µg/mL, IgG1 from 500 ng/mL in 4-fold dilutions, anti-human Fc HRP, OD 490 nm. In general terms: An ELISA detects its analyte on a solid surface through an enzyme-linked reagent.
The target of experiment [3] is recombinant cynomolgus twin strep-tagged ROR2 extracellular domain (cynomolgus monkey). Described as above.
Experiment [4] shares this target. As to the kind of experiment: ELISA on coated twin-strep cynomolgus ROR2 ECD (FIG. 14).
The target in experiment [5] is recombinant human twin strep-tagged ROR2 extracellular domain (human) (UniProt Q01974). As to the kind of experiment: ELISA on coated twin-strep human ROR2 ECD (FIG. 14).
Experiment [6] shares this target. As to the kind of experiment: ELISA, coated twin-strep ROR2 ECD 2 µg/mL, IgG1 from 500 ng/mL in 4-fold dilutions, anti-human Fc HRP, OD 490 nm [C].

B1: ERR2-Top35 (mAb130) (antibody, V domains shown)
VH: QSVKESEGGLFKPMDTLTLTCTVSGFSLNTYGVSWVRQAPGNGLEWIGAVGSSGATNYASWAKSRSTITRNTNENTVTLKMTSLTAADTATYFCARDGYYSSGWGPYFSIWGPGTLVTVSS
VL: SFVLTQPASVQVNLGQTVSLTCTAETLRSSYASWYQQKPGQAPVLLIYRDTSRPSGVPDRFSGSSSGNTATLTISGAQAGDEADYYCATSDGSGSRYYVFGGGTQLTVTG
As to B1, the binding entry in experiment [1], in experiment [2], in experiment [3], in experiment [4], in experiment [5] and in experiment [6] was “binds” in each case.

B2: ERR2-316 (mAb005) (antibody, human IgG1, V domains shown)
VH: QKQLVESGGRLVTPGGSLTLTCTVSGFSLSKYGVSWVRQAPGSGLEYIGTIGGSGTSYYASWAKSRSTITRNTNLNTVTLKMTSLTAADTATYFCARYFGWNTGFDIWGPGTLVTISS
VL: DPVMTQTPSSVSEPVGGTVTIKCQASQSISNALAWYQQKPGQPPKRLIYKASTPASGVPSRFKGSRSGTEYTLTISGVQREDAATYYCLGFSVVSNDGWAFGAGTNVEIK
For B2, the binding result in experiment [4] is given as “binds”.

B3: XBR2-327 (mAb007) (antibody, human IgG1, V domains shown)
VH: QEQLKESGGGLFKPTDTLTLTCTVSGFSLSSGAISWVRQAPGNGLEYIGFVNSLGNTYYANWAKSRSAITRNTNENTVTLKMTSLAAADTATYFCAKDYGNWAFDPWGPGTLVTVSS
VL: DPVLTQTPSSVSAAVGGTVAINCQASQSISSYLSWYQQKPGQPPKLLIYGASKLASGVPSRFSGSGSGTEYTLTISGVQREDAATYYCLGGYASASYRTAFGGGTKLEIK
Turning to B3, the binding result in experiment [3] and in experiment [4] was “binds” each time.

B4: ERR2-317 (mAb006) (antibody, human IgG1, V domains shown)
VH: QSLEESGGRLVTPGTPLTLTCTASGFSLSSYDMIWVRQAPGKGLEYIGIINAGGNTYYASWAKGRFTISRTSTTVDLKMTSPTTEDTATYFCARGSSWTGDIWGPGTLVTVSS
VL: DPVLTQTPSSTSAAVGGTVTIKCQASQSISSYLSWYQQKPGQPPKQLIYAASTLASGVPSRFKGSGSGTEYTLTISGVQREDAATYYCLGGYASASYQTAFGGGTKVEIK
In the case of B4, in experiment [4], the binding entry is given as “binds”.

B5: ERR2-302 (mAb004) (antibody, human IgG1, V domains shown)
VH: QKQLVESGGGLVKPGGSLTLTCTVSGFSLSSYAIGWVRQAPGNGLEWIGIINSYGSTYYASWAKSRSTITRNTNLNTVTLKMTSLTAADTATYFCARSPYGYVSAWGYHRLDLWGQGTLVTISS
VL: SYELTQLPSVSVSLGQTARITCGGASIGSKVVHWYQQKPGLAPGLLIYDDDERPSGVPDRFSGSNSGDTATLTISGAQAGDEAEYYCQLWDGSDVVFGGGTQLTVTG
As to B5, the binding entry in experiment [1], in experiment [2], in experiment [4] and in experiment [5] was “binds” in each case.

B6: ERR2-308 (mAb037) (antibody, human IgG1, V domains shown)
VH: QEQLEESGGRLVTPGTPLTLTCAVSGFSLSNYAMGWVRQAPGEGLEYIGWISAGGGAYYASWVNGRFTISKTSSTVDLKMTSLTAADTATYFCARGASNGCDLWGPGTLVTVSS
VL: DPMLTQTPSSVSAVVGGTVTIKCQASQSITSWLSWYQQKPGQPPKLLIYGASHLASGVPSRFKGSGYGTEFTLTISGIQREDAATYYCLGGYSNSDIVFGGGTELEIL
As to B6, the binding result in experiment [4] is listed as “binds”.
